Data as given in US20250018014A1, “METHOD FOR TREATING AND/OR PREVENTING REGNASE-1-RELATED DISEASE” (OSAKA UNIVERSITY, priority 2018, published 2025).
At least one compound was matched to its structure with a doubt left. Some results were stated once for a whole list of compounds, not compound by compound. Blank lines part the entries; values can stand above or below the molecule they belong to. Residues, ends and D or L forms follow the SMILES beside them.

Tests used:
[1] = biological target: T1, FL_Reg1 (full-length human Regnase-1) phosphorylation by TBK1 (Homo sapiens, UniProt Q5D1E8); assay: Regnase-1 phosphorylation inhibition by compounds (AlphaScreen), TBK1, full-length Regnase-1; type: biochemical; conditions: concentration-dependent
T1 construct: made in house; host or cells: Expi293 cells
T1 sequence (Q5D1E8 1-599): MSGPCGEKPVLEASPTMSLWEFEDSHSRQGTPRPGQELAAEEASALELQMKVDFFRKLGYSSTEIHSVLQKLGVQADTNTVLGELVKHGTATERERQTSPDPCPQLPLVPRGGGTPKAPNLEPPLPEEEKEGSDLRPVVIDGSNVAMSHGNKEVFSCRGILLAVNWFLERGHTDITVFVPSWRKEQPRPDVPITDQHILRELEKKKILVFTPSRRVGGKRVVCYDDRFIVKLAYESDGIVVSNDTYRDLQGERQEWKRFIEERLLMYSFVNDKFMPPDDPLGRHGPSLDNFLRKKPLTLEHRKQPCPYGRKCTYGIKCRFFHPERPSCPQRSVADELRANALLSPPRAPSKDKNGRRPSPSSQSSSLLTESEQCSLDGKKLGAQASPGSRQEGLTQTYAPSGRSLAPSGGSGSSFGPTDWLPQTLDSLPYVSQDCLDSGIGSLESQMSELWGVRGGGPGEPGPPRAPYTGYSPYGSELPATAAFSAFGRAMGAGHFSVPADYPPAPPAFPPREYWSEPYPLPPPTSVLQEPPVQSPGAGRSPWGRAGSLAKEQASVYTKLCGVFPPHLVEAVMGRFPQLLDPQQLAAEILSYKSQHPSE
Source text: (§1) The full-length sequence of human Regnase-1 (UniProt ID: Q5D1E8) was used to prepare a construct having a FLAG tag on the N-terminal side and a recognition sequence for biotin ligase BirA on the C-terminal side (FL_Reg1) as a target protein. The above-mentioned Regnase-1 was expressed in mammalian Expi293 cells, purified with FLAG M2 agarose, and isolated by gel filtration chromatography. When biotinylation was required, methods from nonpatent documents (BMC biotechnology, 2008,8,41; and Protein Science, 1999,8,921-929) were used. […]
(§2) Using Kinase assay buffer III (manufactured by SignalChem) supplemented with 2 mM DTT, 100 μM sodium vanadate, and 2 mM manganese chloride, kinase (IKKβ (manufactured by SignalChem) or TBK1 (manufactured by SignalChem)) and Regnase-1 were reacted in the presence of 10 μM ATP at room temperature for 2 hours to perform a phosphorylation reaction.
(§3) Phosphorylated Regnase-1 was detected by the AlphaScreen system. After each of the above-mentioned phosphorylated Regnase-1 antibodies was added and reacted at room temperature for one hour, anti-FLAG AlphaLISA Acceptor Beads (manufactured by PerkinElmer) and Protein A AlphaScreen Donor Beads (manufactured by PerkinElmer) were added, and EnVision (manufactured by PerkinElmer) was used to measure the excited luminescence. As a result, phosphorylated Regnase-1 produced by the phosphorylation reaction by kinase was specifically detected, and signals were confirmed to be enhanced in a manner dependent on Regnase-1 and kinase concentrations (FIG. 24).
(§4) After mixing 2 nM of the above-mentioned Regnase-1 and the compound, phosphorylated Regnase-1 produced by the phosphorylation reaction was detected by the AlphaScreen system. As the results, the inhibition rate was calculated from the signals obtained when adding the compound at each concentration, by defining the signal obtained with Regnase-1 alone to be 100% inhibition rate, and the signal obtained when the same amount of solvent (DMSO) is added in place of the compound as 0% inhibition rate. The 50% inhibition concentration (μM) was calculated from the obtained dose response curve (Table 11).

[2] = biological target: T2, FL_Reg1 (full-length human Regnase-1) phosphorylation by IKKβ (Homo sapiens, UniProt Q5D1E8); assay: Regnase-1 phosphorylation inhibition by compounds (AlphaScreen), IKKβ, full-length Regnase-1; type: biochemical; conditions: concentration-dependent
T2 construct: made in house; host or cells: Expi293 cells
T2 sequence (Q5D1E8 1-599): T1 sequence (Q5D1E8 1-599)
Source text: as §1, §2, §3, §4

[3] = biological target: T3, FL_Reg1 (Homo sapiens, UniProt Q5D1E8); assay: Binding of Regnase-1 and peptide compounds (affinity mass analysis, SEC then LC/MS); conditions: 1 μM FL_Reg1, final compound concentration 1 μM, 23° C. for one hour
T3 construct: made in house; host or cells: Expi293 cells
T3 sequence (Q5D1E8 1-599): T1 sequence (Q5D1E8 1-599)
Method: To a 96 PP plate (Greiner bio-one, 651201) coated with lipidure (Lipidure-CM5206) (NOF CORPORATION, 71S42000001), 2 μL of Tris-Buffer (25 mM Tris-NaOH pH 8.3, 300 mM NaCl, 1 mM DTT, 1 mM EDTA, 1% DMSO) was dispensed, and then 1 mM DMSO sample was added at 20 nL each with a LABCYTE ECHO (registered trademark) acoustic dispensing system. Furthermore, 18 μL of protein prepared at 1 μM FL_Reg1 in advance using Tris-Buffer was added (final compound concentration: 1 μM), and the mixture was incubated in the dark at 23° C. for one hour. Then, to a 96-well, 400 μL, Hydrophilic PVDF 0.45 μm, Long drip (Harvard, 74-5556), 100 μL of P-2, Fine (Bio-Rad, 1504114) which had been swollen in advance was added, and conditioning was performed by centrifuging several times at 2000× G for two minutes using the buffer. Next, 20 μL of the sample after incubation was added to the conditioned 96-well, 400 μL, Hydrophilic PVDF 0.45 μm, Long drip, and SEC treatment was performed by centrifugation at 2000×G for two minutes. To the liquid from SEC, 32 μL of acetonitrile (LC/MS grade, FUJIFILM Wako Pure Chemical Industries, Ltd.) supplemented with 0.1% formic acid (LC/MS grade, 067-04531, FUJIFILM Wako Pure Chemical Industries, Ltd.) was added, and this was centrifuged at 1800×G for five minutes, and the supernatant was used as an analysis sample for LC/MS measurement. Binding to Regnase-1 was detected for all of the peptide compounds, PP1 to PP25.

inhibition of phosphorylation of full-length Regnase-1 (FL_Reg1) by TBK1, in words [1]: all showed inhibitory activity
inhibition of phosphorylation of full-length Regnase-1 (FL_Reg1) by IKKβ, in words [2]: all showed inhibitory activity
AS-MS ratio(%) [3]: 15.8%
Compound: CC[C@H](C)[C@@H]1NC(=O)[C@H](C)NC(=O)[C@H](CCCNC(=N)N)NC(=O)[C@H](Cc2ccc(O)cc2)NC(=O)[C@H](Cc2ccc(O)cc2)NC(=O)[C@H](C)NC(=O)[C@H](CO)NC(=O)[C@H](CC(N)=O)NC(=O)[C@H](Cc2ccccc2)NC(=O)[C@H](CC(N)=O)NC(=O)[C@H](C)N(C)C(=O)C[C@@H](C(=O)N2CCCC2)NC(=O)[C@H](Cc2c[nH]c3ccccc23)NC1=O [PP7] (HELM PEPTIDE1{[meA].N.F.N.S.A.Y.Y.R.A.I.W.D.[C1CCN([*:1])C1]}$PEPTIDE1,PEPTIDE1,1:R1-13:R3$$$V2.0)

inhibition of phosphorylation of full-length Regnase-1 (FL_Reg1) by TBK1, in words [1]: all showed inhibitory activity
inhibition of phosphorylation of full-length Regnase-1 (FL_Reg1) by IKKβ, in words [2]: all showed inhibitory activity
Compound: CC[C@H](C)[C@@H]1NC(=O)[C@H](CO)NC(=O)[C@H](CCCNC(=N)N)NC(=O)[C@H](Cc2ccc(O)cc2)NC(=O)[C@H](Cc2ccc(O)cc2)NC(=O)[C@H](Cc2c[nH]c3ccccc23)NC(=O)[C@H](CO)NC(=O)[C@H](CCC(N)=O)NC(=O)[C@H](Cc2ccc(O)cc2)NC(=O)[C@H](CC(N)=O)NC(=O)[C@H](C)N(C)C(=O)C[C@@H](C(=O)N2CCCC2)NC(=O)[C@H](Cc2c[nH]c3ccccc23)NC1=O [PP10] (HELM PEPTIDE1{[meA].N.Y.Q.S.W.Y.Y.R.S.I.W.D.[C1CCN([*:1])C1]}$PEPTIDE1,PEPTIDE1,1:R1-13:R3$$$V2.0)

Second part, the molecule before the results:

Compound: C[C@@H]1C(=O)N[C@@H](CCC(=O)O)C(=O)N[C@@H](CC(=O)O)C(=O)N[C@@H]([C@@H](C)O)C(=O)N2CCC[C@H]2C(=O)N[C@@H](CCC(=O)O)C(=O)N[C@@H](CC(=O)O)C(=O)N[C@@H](CC(=O)O)C(=O)N[C@@H](Cc2c[nH]cn2)C(=O)N[C@H](C(=O)N2CCCC2)CC(=O)N1C [PP25] (HELM PEPTIDE1{[C[C@H](C(=O)[*:2])N(C)[*:1]].E.D.T.P.E.D.D.H.D.[C1CCN([*:1])C1]}$PEPTIDE1,PEPTIDE1,1:R1-10:R3$$$V2.0)
inhibition of phosphorylation of full-length Regnase-1 (FL_Reg1) by TBK1, in words [1]: all showed inhibitory activity
inhibition of phosphorylation of full-length Regnase-1 (FL_Reg1) by IKKβ, in words [2]: all showed inhibitory activity
AS-MS ratio(%) [3]: 6.9%

Compound: CC[C@H](C)[C@@H]1NC(=O)[C@H](Cc2c[nH]c3ccccc23)NC(=O)[C@H](CCCNC(=N)N)NC(=O)[C@H](Cc2ccccc2)NC(=O)[C@H](CCC(N)=O)NC(=O)[C@H](C)NC(=O)[C@H](Cc2ccccc2)NC(=O)[C@H](CCCCN)NC(=O)[C@H](C)N(C)C(=O)C[C@@H](C(=O)N2CCCC2)NC(=O)[C@@H]2CCCN2C(=O)[C@H](Cc2ccc(O)cc2)NC1=O [PP11] (HELM PEPTIDE1{[meA].K.F.A.Q.F.R.W.I.Y.P.D.[C1CCN([*:1])C1]}$PEPTIDE1,PEPTIDE1,1:R1-12:R3$$$V2.0)
inhibition of phosphorylation of full-length Regnase-1 (FL_Reg1) by TBK1, in words [1]: all showed inhibitory activity
inhibition of phosphorylation of full-length Regnase-1 (FL_Reg1) by IKKβ, in words [2]: all showed inhibitory activity
AS-MS ratio(%) [3]: 5.1%

Compound: CC[C@H](C)[C@@H]1NC(=O)[C@H](CC(=O)O)NC(=O)[C@H](C)N(C)C(=O)C[C@@H](C(=O)N2CCCC2)NC(=O)[C@H](Cc2c[nH]c3ccccc23)NC(=O)[C@H](CC(=O)O)NC(=O)[C@H](Cc2c[nH]c3ccccc23)NC(=O)[C@H](Cc2ccc(O)cc2)NC(=O)[C@H](CC(=O)O)NC(=O)[C@H](Cc2ccccc2)NC(=O)[C@H](Cc2c[nH]c3ccccc23)NC1=O [PP17] (HELM PEPTIDE1{[meA].D.I.W.F.D.Y.W.D.W.D.[C1CCN([*:1])C1]}$PEPTIDE1,PEPTIDE1,1:R1-11:R3$$$V2.0)
inhibition of phosphorylation of full-length Regnase-1 (FL_Reg1) by TBK1, in words [1]: all showed inhibitory activity
inhibition of phosphorylation of full-length Regnase-1 (FL_Reg1) by IKKβ, in words [2]: all showed inhibitory activity
AS-MS ratio(%) [3]: 67.8%
